Experimental data: paper PMC3585324, “InterAKTions with FKBPs - Mutational and Pharmacological Exploration” (PLoS ONE, 2013)
Results are given in words; binding and its absence hold for the method and conditions named. Binding calls can cover weak binding; strength is not graded here. For some of these results: Tags and fused reporters may be left off the sequences shown. For some of these results: Binding seen in cells or lysates may run through a third protein.

Chains of the proteins cited; added tags and fusions are not shown. Lines headed by an entry give the natural chain unless they say otherwise; changes in a name come on top.
UniProt P31749: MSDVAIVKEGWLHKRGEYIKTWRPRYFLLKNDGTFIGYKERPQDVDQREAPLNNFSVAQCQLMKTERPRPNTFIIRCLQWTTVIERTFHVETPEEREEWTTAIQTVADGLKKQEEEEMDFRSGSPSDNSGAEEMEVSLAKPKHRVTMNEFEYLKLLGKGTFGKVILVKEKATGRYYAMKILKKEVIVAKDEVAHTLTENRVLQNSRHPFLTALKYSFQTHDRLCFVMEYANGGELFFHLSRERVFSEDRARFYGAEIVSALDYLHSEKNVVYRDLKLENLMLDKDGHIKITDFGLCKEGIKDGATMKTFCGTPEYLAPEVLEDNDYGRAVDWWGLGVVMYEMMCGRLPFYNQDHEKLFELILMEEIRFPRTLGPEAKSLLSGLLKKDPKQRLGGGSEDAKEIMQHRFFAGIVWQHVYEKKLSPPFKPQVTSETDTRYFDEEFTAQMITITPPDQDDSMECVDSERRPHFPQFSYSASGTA

How the values were obtained:
[1] = molecular target: T1, FLAG-tagged FKBP51 (expressed in cells) (UniProt Q13451); test: co-IP; HEK293T cells co-transfected; lysis in NETN buffer; FLAG or HA affinity resin overnight at 4 °C, 5 washes, Western blot; in some panels cells were treated before lysis with FK1706, FK506 or rapamycin (1 µM, 1 h), AT7867 (10 µM, 1 h), wortmannin, starvation or FCS
T1 sequence: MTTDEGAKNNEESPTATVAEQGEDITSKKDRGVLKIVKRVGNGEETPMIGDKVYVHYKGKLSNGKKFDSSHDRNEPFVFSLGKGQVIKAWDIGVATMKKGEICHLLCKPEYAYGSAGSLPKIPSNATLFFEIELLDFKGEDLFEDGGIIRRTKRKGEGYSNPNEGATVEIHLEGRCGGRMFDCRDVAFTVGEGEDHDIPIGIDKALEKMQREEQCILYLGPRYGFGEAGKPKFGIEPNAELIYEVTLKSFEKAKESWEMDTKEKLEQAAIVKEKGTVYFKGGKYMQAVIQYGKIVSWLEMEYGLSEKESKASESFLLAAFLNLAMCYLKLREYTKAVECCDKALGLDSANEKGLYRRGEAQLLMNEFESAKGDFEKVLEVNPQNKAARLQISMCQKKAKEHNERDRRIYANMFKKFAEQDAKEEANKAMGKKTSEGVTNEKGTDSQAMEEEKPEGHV

GST_Akt1^S473D = GST_Akt1^S473D (UniProt P31749); test: pull-down; GST pull-down: 15 µM FKBPs or Cyp40 with 22 µM GST_Akt1 S473D or GST_Akt1 S473D_ΔPH on glutathione resin, 3 h, 4 °C, NETN buffer (20 mM Tris-HCl pH 8.0, 100 mM NaCl, 1 mM EDTA, 0.5% igepal); AMP-PNP (5 mM), rapamycin (1 µM) or DMSO where indicated; Western blot; both purified
[2] = molecular target: HA-tagged S6K (p70 ribosomal S6 kinase); test: co-IP; HeLa cells co-transfected with FLAG-tagged FKBPs and HA-tagged S6K, treated with rapamycin (25 nM) or DMSO for 60 min; lysates immunoprecipitated, Western blot
GST_Akt1^S473D_ΔPH = test: pull-down; GST pull-down: 15 µM FKBPs or Cyp40 with 22 µM GST_Akt1 S473D or GST_Akt1 S473D_ΔPH on glutathione resin, 3 h, 4 °C, NETN buffer (20 mM Tris-HCl pH 8.0, 100 mM NaCl, 1 mM EDTA, 0.5% igepal); AMP-PNP (5 mM), rapamycin (1 µM) or DMSO where indicated; Western blot; both purified

Molecule: GST-ΔN_SGK (wild type) (domain or fragment)
- binding [1]: binds

Molecule: GST-ΔN_SGK^S422D (domain or fragment)
- binding [1]: binds

Molecule: GST-tagged Akt1 (expressed in HEK293T)
- binding [1]: binds

Molecule: purified PPIase-deficient mutant of the isolated FK506-binding domain of FKBP51 (from UniProt Q13451) (domain or fragment)
- binding (GST_Akt1^S473D): binds

B1: FLAG-tagged FKBP51 (expressed in cells) (protein, UniProt Q13451 1-457)
chain: MTTDEGAKNNEESPTATVAEQGEDITSKKDRGVLKIVKRVGNGEETPMIGDKVYVHYKGKLSNGKKFDSSHDRNEPFVFSLGKGQVIKAWDIGVATMKKGEICHLLCKPEYAYGSAGSLPKIPSNATLFFEIELLDFKGEDLFEDGGIIRRTKRKGEGYSNPNEGATVEIHLEGRCGGRMFDCRDVAFTVGEGEDHDIPIGIDKALEKMQREEQCILYLGPRYGFGEAGKPKFGIEPNAELIYEVTLKSFEKAKESWEMDTKEKLEQAAIVKEKGTVYFKGGKYMQAVIQYGKIVSWLEMEYGLSEKESKASESFLLAAFLNLAMCYLKLREYTKAVECCDKALGLDSANEKGLYRRGEAQLLMNEFESAKGDFEKVLEVNPQNKAARLQISMCQKKAKEHNERDRRIYANMFKKFAEQDAKEEANKAMGKKTSEGVTNEKGTDSQAMEEEKPEGHV
- binding [2]: binds

B2: purified FKBP52 (natural protein, UniProt Q02790 1-459, looked up)
chain: MTAEEMKATESGAQSAPLPMEGVDISPKQDEGVLKVIKREGTGTEMPMIGDRVFVHYTGWLLDGTKFDSSLDRKDKFSFDLGKGEVIKAWDIAIATMKVGEVCHITCKPEYAYGSAGSPPKIPPNATLVFEVELFEFKGEDLTEEEDGGIIRRIQTRGEGYAKPNEGAIVEVALEGYYKDKLFDQRELRFEIGEGENLDLPYGLERAIQRMEKGEHSIVYLKPSYAFGSVGKEKFQIPPNAELKYELHLKSFEKAKESWEMNSEEKLEQSTIVKERGTVYFKEGKYKQALLQYKKIVSWLEYESSFSNEEAQKAQALRLASHLNLAMCHLKLQAFSAAIESCNKALELDSNNEKGLFRRGEAHLAVNDFELARADFQKVLQLYPNNKAAKTQLAVCQQRIRRQLAREKKLYANMFERLAEEENKAKAEASSGDHPTDTEMKEEQKSNTAGSQSQVETEA
notes: FKBP52, His-tagged full length
- binding [2]: binds

B3: purified FLAG-tagged FKBP51 (natural protein, UniProt Q13451 1-457, looked up)
chain: MTTDEGAKNNEESPTATVAEQGEDITSKKDRGVLKIVKRVGNGEETPMIGDKVYVHYKGKLSNGKKFDSSHDRNEPFVFSLGKGQVIKAWDIGVATMKKGEICHLLCKPEYAYGSAGSLPKIPSNATLFFEIELLDFKGEDLFEDGGIIRRTKRKGEGYSNPNEGATVEIHLEGRCGGRMFDCRDVAFTVGEGEDHDIPIGIDKALEKMQREEQCILYLGPRYGFGEAGKPKFGIEPNAELIYEVTLKSFEKAKESWEMDTKEKLEQAAIVKEKGTVYFKGGKYMQAVIQYGKIVSWLEMEYGLSEKESKASESFLLAAFLNLAMCYLKLREYTKAVECCDKALGLDSANEKGLYRRGEAQLLMNEFESAKGDFEKVLEVNPQNKAARLQISMCQKKAKEHNERDRRIYANMFKKFAEQDAKEEANKAMGKKTSEGVTNEKGTDSQAMEEEKPEGHV
notes: FKBP51, His-tagged full length; also called FKBP51_FLAG; purified FKBP51
- binding (GST_Akt1^S473D_ΔPH): binds
